A: 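Phenotypic screen: M. tuberculosis growth, glucose 7H9 medium, 3 days; the read-out is not stated. Compounds at 50 µM. Higher reads as more growth inhibition (inferred: compounds with an IC50 in retests scored well above the rest). Of about 69,000 compounds tested this way, about 760 (1.1%) reached 50% or more in at least one test.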
B: 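Phenotypic screen: M. tuberculosis growth, cholesterol and DPPC medium, 4 days; the read-out is not stated. Tested at 50 µM. The record gives no direction; compounds that gave an IC50 in retests scored well above the rest, so higher reads as more growth inhibition. About 69,000 compounds were tested under these conditions; 0.54% (about 370) showed 50% or more at least once.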

Results are given as percent effect.
The record does not define 0% and 100%; most values in the screen are far below 50% and negative numbers occur (in some assays of this library far below -100).
The compounds are a random part of those screened.
Two or more numbers in one place are separate tests of the same structure; such repeats can differ widely.
A dash means the value is not listed here; it may have been measured.

| compound | A | B |
|---|---|---|
| `CN(Cc1cccnc1)CC1CCOc2ccccc2C1` (stereo not shown) | 42.18 | 1.158 |
| `CCOc1cc(F)ccc1NC(=O)N(C)Cc1cnn(C)c1` | -35.96 | -31.4 |
| `COc1ccccc1C(=O)N1CC(=O)N(Cc2ccco2)CC(O)C1` (stereo not shown) | 11.6 | 7.08 |
| `COc1ccc(C(=O)N2CCC(Oc3ccccc3C)(C(=O)O)CC2)o1` | 29.35 | -8.509 |
| `Nc1nc(CCCNC(=O)c2ccccc2C2CCNC2)cs1` (stereo not shown) | 4.666 & 10.22 | 0.7145 |
| `N#Cc1cccc(CN2Cc3nccn3CC(COCC3CC3)C2)c1.O=C(O)C(F)(F)F` (stereo not shown) | -36.68 | -2.781 |
| `O=C(O)C(F)(F)F.[H][C@@]12OCCN(c3ncc(F)cn3)[C@@]1([H])CC[C@H]2OCC1CCOCC1` | 29.82 | 14.42 |
| `O=C(c1cccnc1-n1cncn1)N1CCC(Nc2ccccc2)CC1` | -8.868 & 7.117 | 12.19 |
| `COc1cc(C(=O)NS(=O)(=O)c2cc(Cl)sc2Cl)ccc1OC(F)F` | -6.752 | -2.257 & -9.835 |
| `Cc1ccc(CN2CCOC3(CCCN(c4cccc(F)c4)C3)C2)o1.O=C(O)C(F)(F)F.O=C(O)C(F)(F)F` (stereo not shown) | -6.935 | -21.13 & 15.29 |
| `O=C(NCCO)c1coc(Cn2cnc3ccccc32)n1` | -12.52 & -6.292 | -22.82 |
| `CCC(CNC(=O)c1cc(OC)ccc1Br)N1CCc2ccccc2C1` (stereo not shown) | -31.02 | -2.702 |
| `Cn1ccnc1Sc1ncc(C(=O)N2CCCCC2)cc1Cl` | -34.7 | -1.644 |
| `CCCNC(=O)c1cc2c(c3ccccc3n2C)n1C(=O)N(C)C` | - | -46.24 |
| `CCOC(=O)c1n[nH]cc1CN1CCOC(Cc2ccc(F)cc2)C1` (stereo not shown) | -8.65 & 5.265 | 11.16 |
| `OCc1ccc(-c2nccn2CCc2nc3c(s2)CCCC3)o1` | 3.808 & 23.82 | 5.733 |
| `CC(=O)c1cnc(NCCCN2CCOCC2)nc1C` | -31.78 | -6.335 |
| `Cc1cc(C2CCCN2C(=O)NCc2cccnc2)on1` (stereo not shown) | -13.93 | 11.27 |
| `CC(C)NC(=O)N1CCCC2(CC(C(=O)Nc3ccccc3)=NO2)C1` (stereo not shown) | 5.416 | -27.33 |
| `CC(C)c1nc(CNC2CCN(C(=O)OC(C)(C)C)CC2)cs1` | 4.17 & 23.59 | 16.42 |
| `COc1ccc(NC(=O)c2ccco2)c(N2CCN(C(C)=O)CC2)n1` | -4.832 & -32.5 | -10.42 |
| `CN(CC(=O)N(C)C1CCCCC1)C1CCc2ccccc21` (stereo not shown) | -31.96 | -17.76 |
| `COc1ccccc1C(=O)N1CCC(O)(c2cccc(C)c2C)CC1` | -7.551 & -21.86 | -9.626 & -7.949 |
| `CC(C)NC(=O)N1C[C@@H](F)[C@@H](OCc2nc3ccccc3o2)C1` | -2.421 & 12.45 | 6.824 |
| `COC(=O)NCC(=O)NCC(C)(C)c1cccc(Br)c1` | 21.32 | 11.65 |
| `CN(CC(=O)Nc1cc(C(F)(F)F)c[nH]c1=O)Cc1ccccc1` | 16.26 | 2.085 |
| `CCCOc1ccc2c(c1)OCC(C(=O)NC(C)Cn1ccnc1)=C2` (stereo not shown) | 2.419 | -14.37 |
| `Cc1cccc(-n2cnnc2CCCN2CCOCC2)c1` | 24.94 | -1.711 |
| `Cc1ccc2[nH]c3c(c2c1)CN(C(=O)CN(C)CC1OCCO1)CC3` | 8.781 | 6.87 |
| `COCc1ncc(-c2nccn2CCn2cnnc2)cn1` | 8.484 | -7.518 |
| `[H][C@]12CN(C(=O)c3cc(C)on3)CC[C@@]1(O)CCN(C(=O)N1CCCC1)C2` | 9.509 | -2.937 |
| `O=C(NCc1ccccc1)N1CCC(Oc2ncccc2Cl)CC1` | 30.58 | 4.805 |
| `Cc1ccc(C(=O)N2CCN(C)C3(CCC(=O)N(C)CC3)C2)c(F)c1` (stereo not shown) | 0.9941 & -2.498 | 9.164 |
| `O=C(N1CCOCC1)N1CCCC(c2ncncc2-c2ccncc2)C1` (stereo not shown) | 4.442 | -7.01 |
| `O=C(Nc1c(F)cccc1F)N1CC(c2nc(C3CC3)no2)C1` | 0.698 & -1.508 | -6.757 |
| `Cc1ccc(C(=O)Nc2nnc(C3CC3)s2)c(-n2cnnn2)c1C` | 10.67 | -7.218 |
| `COc1ccc(CNC(Cc2ccsc2)c2ccc(C)cn2)cc1OC.Cl` (stereo not shown) | 27.04 | 14.61 |
| `Cc1nc(S(=O)(=O)N2CCSCC2)cn1C` | -13.66 | -5.319 |
| `CS(=O)(=O)NC(c1ccccc1)c1ccc2c(c1)CCCO2` (stereo not shown) | 19.7 & 16.83 | -0.4396 |
| `Cc1nsc(NC(=O)N2CCN(Cc3ccccc3F)C(=O)C2)n1` | 23.61 | 24.13 |
| `COCC(=O)Nc1nnc2n(Cc3cccc(OC)c3)[nH]c(C)c1-2` | -1.489 & 4.843 | 10.73 |
| `CCc1nc(C)c(CN2CCOC(Cc3ccccc3Cl)C2)[nH]1` (stereo not shown) | 7.783 & 4.56 | 22.26 |
| `CN(C(=O)Cn1nc(-c2ccccc2Cl)ccc1=O)C1CCS(=O)(=O)C1` (stereo not shown) | 16.69 | -8.76 |
| `Cc1nnsc1C(=O)NCCn1ccc(-c2ccncc2)n1` | -7.068 | -14.01 |
| `Cc1cc(C)n(CC2CCCCN2CC(=O)NC2CCOCC2)n1` (stereo not shown) | -37.94 | -19.55 |
| `COc1ccc(-c2nnc(SC(C)C(=O)NC(C)(C)C)[nH]2)c(OC)c1` (stereo not shown) | 12.37 | -7.831 & -0.1339 |
| `Cc1cnn(CC2CCCCN2C(=O)Cc2cccc(F)c2)c1` (stereo not shown) | 5.248 | -9.104 |
| `Cc1ccc(N2CCc3sc(C(=O)N4CCOCC4)cc32)nn1` | -3.39 | -8.978 |
| `CS(=O)(=O)N1CCC2(CC1)CN(CC1CCOC1)c1ccccc12.O=C(O)C(F)(F)F` (stereo not shown) | -17.16 | -14.93 |

Repeated from the top, 6 entries:

- CN(Cc1cccnc1)CC1CCOc2ccccc2C1 (stereo not shown) : A: 42.18%; B: 1.158%
- CCOc1cc(F)ccc1NC(=O)N(C)Cc1cnn(C)c1 : A: -35.96%; B: -31.4%
- COc1ccccc1C(=O)N1CC(=O)N(Cc2ccco2)CC(O)C1 (stereo not shown) : A: 11.6%; B: 7.08%
- COc1ccc(C(=O)N2CCC(Oc3ccccc3C)(C(=O)O)CC2)o1 : A: 29.35%; B: -8.509%
- Nc1nc(CCCNC(=O)c2ccccc2C2CCNC2)cs1 (stereo not shown) : A: 4.666% & 10.22%; B: 0.7145%
- N#Cc1cccc(CN2Cc3nccn3CC(COCC3CC3)C2)c1.O=C(O)C(F)(F)F (stereo not shown) : A: -36.68%; B: -2.781%

The values are deposited in ChEMBL (CHEMBL3988442, “University of Dundee, Small-Polar-MMV Screening Library” (2021)).